Assay results: patent US20090156645A1, “Method for Increasing the Susceptibility of Peptide Deformylase Inhibitors by Using Efflux Pump Inhibitors” (priority 2004, published 2009)
Values after ≈ are worked out from the molar mass of the structure shown. Like-named read-outs stand apart in the source and are kept apart here.

Tested on: H. influenzae
Assay: microbe, parasite or virus in culture
Type: cell-based, Haemophilus influenzae
Details: for MIC: Haemophilus influenzae
Experimental: L-broth or L-agar (Difco) is used for routine growth of Escherichia coli (E. coli). Chocolate agar plates (Remel) are used for routine growth of H. influenzae. Brain heart infusion broth (Remel) supplemented with 10 μg/mL of β-NAD (Fluka) and 10 μg/mL hemin/vitamin K solution (sBHI) (Remel) is used for liquid broth cultivation of H. influenzae. For induction of natural competence in H. influenzae, nutritional downshift is induced using M-IV medium as described previously. See Poje and Redfield, Methods Mol Med, Vol. 71, No., pp. 57-70 (2003). Kanamycin is added to growth media at 50 μg/mL (E. coli) or 5 μg/mL (H. influenzae) as required.
Antibiotic and substrate MICs are determined by broth microdilution using 2-fold dilution in HTM in accordance with the procedures established by the National Committee for Clinical Laboratory Standards (NCCLS). See NCCLS, Approved standard M7-A5, Wayne, Pa. (2003). PDF inhibitors are synthesized at the Novartis Institutes for BioMedical Research, Cambridge, Mass. All remaining antibiotics are obtained from Sigma (St. Louis, Mo.).

Molecule `CCC[C@@H]1C[C@@H](C(=O)N[C@@H]([C@H]2O[C@H](SC)[C@H](O)[C@@H](O)[C@H]2O)[C@H](C)Cl)N(C)C1` [CLD, clindamycin] has a decrease in susceptibility of 4 fold, an MIC (strain NB65016-CDS0004, knockout acrB) of 0.5 µg/mL (≈ 1.18 µM) and an MIC (strain NB65027-CDS0003, knockout HI1462) of 2 µg/mL (≈ 4.71 µM). The MIC (strain NB65027-CDS0021, knockout acrB) was 2 µg/mL (≈ 4.71 µM), the MIC (strain NB65044-CDS0001 (NB65044 acrB::Km)) was 0.5 µg/mL (≈ 1.18 µM) and the MIC (strain NB65044-CDS0008, knockout acrR) was 32 µg/mL (≈ 75.3 µM). For the same molecule, the MIC (strain NB65044-CDS0011 (acrR mutant selected on 8 μg/mL LBM415, stop codon)) was 32 µg/mL (≈ 75.3 µM), the MIC (strain NB65044-CDS0014 (acrR mutant selected on 8 μg/mL LBM415, L→P)) was 32 µg/mL (≈ 75.3 µM) and the MIC (strain NB65044-CDS0020 (Table 1: NB65044 acrB::Km)) was 0.5 µg/mL (≈ 1.18 µM). It also gave an MIC (strain NB65051-CDS0002, knockout acrB) of 0.5 µg/mL (≈ 1.18 µM), an MIC (strain NB65051-CDS0022, knockout HI1462) of 0.5 µg/mL (≈ 1.18 µM) and an MIC (strain NB65063-CDS0005, knockout acrB) of 0.5 µg/mL (≈ 1.18 µM). It also gave an MIC (strain NB65069-CDS0007, knockout acrB) of 0.5 µg/mL (≈ 1.18 µM), an MIC (strain NB65076-CDS0006, knockout acrB) of 0.5 µg/mL (≈ 1.18 µM) and a decrease in susceptibility (two acrR mutants of NB65044 selected on 8 μg/mL LBM415 versus parent) of 4 fold.
